According to paper PMC7819943, “Rice protein-binding microarrays: a tool to detect cis-acting elements near promoter regions in rice”:
Some of the results follow.

By UniProt entry, the sequences of proteins in these tests, tags left out.
UniProt Q0JBA9, entry or part of it: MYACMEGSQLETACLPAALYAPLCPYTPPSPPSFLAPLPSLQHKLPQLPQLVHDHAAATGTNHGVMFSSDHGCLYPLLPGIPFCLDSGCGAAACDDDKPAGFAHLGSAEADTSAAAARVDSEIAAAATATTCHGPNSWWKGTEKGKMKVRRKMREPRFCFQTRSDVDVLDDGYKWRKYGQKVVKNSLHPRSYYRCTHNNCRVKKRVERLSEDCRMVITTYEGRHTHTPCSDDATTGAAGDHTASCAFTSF

Each sequence was assayed against OsWRKY34 (Oryza sativa, UniProt Q0JBA9 1-250) (assay: protein-binding microarray (RPBM); PBS, 2% BSA, 51.3 ng/ul salmon testes DNA, 50 uM zinc acetate, 200 nM TF, 25 C, 1 h; high values mean tight binding). Conditions: protein: recombinant; tags: N-terminal polyhistidine and DsRed monomer fusion (pET32a); label: CyDye5-dUTP incorporated in the synthesized complementary strand; 3' TTTTT single-stranded linker to array surface; dsDNA, one strand shown.
Outline: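 Transcription factors, each fused N-terminally to a polyhistidine tag and DsRed, were expressed in E. coli BL21-CodonPlus and purified on Ni–NTA. A custom Agilent array was made double-stranded by primer extension with Cy5-dUTP and blocked with 2% BSA. It was incubated with 200 nM protein in PBS, 2% BSA, salmon testes DNA and 50 µM zinc acetate at 25 °C for 1 h, then washed. The binding signal is per-feature fluorescence intensity (arbitrary units) read on an Axon 4000B scanner.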

First: AGCACAAATATCACAACCTGACCCACATTAGTCACACGCACGGAGTCACCTAGTGCAG
Second: TCTTAAATATGCCGGCTTATTTTGTACTCCTCTACACCTGCGGAGTCACCTAGTGCAG
The binding signal of the first is higher: 8360 fluorescence intensity (a.u.) for the first, 8170 fluorescence intensity (a.u.) for the second.

Going from “GTGTCCAACTTTGACTGTCCATCTTATATGAAATTTTTTTCGGAGTCACCTAGTGCAG” to “AGGTTCAACACCTCCCATTGCTCGCAAGAATGTCTGCAGCCGGAGTCACCTAGTGCAG”, the binding signal falls from 9230 fluorescence intensity (a.u.) to 8200 fluorescence intensity (a.u.).

Compared with “CTGGGCAAAATCTCTCCCATACATACACTACAGCGGCGAACGGAGTCACCTAGTGCAG”, “TTGGAGGTCCAGTGTGATCGTATCGTCCGTGCTGGCTCTGCGGAGTCACCTAGTGCAG” is lower in binding signal: 9910 fluorescence intensity (a.u.) for the first, 8240 fluorescence intensity (a.u.) for the second.

Going from “GCTTCATCACTCCATCTCGCCTTGTCTCATTCCAAGTATACGGAGTCACCTAGTGCAG” to “GTTCTTCCATCCTCGTCGTGCCGACTCCTCCTGTCCTCCACGGAGTCACCTAGTGCAG”, the binding signal falls from 9070 fluorescence intensity (a.u.) to 8500 fluorescence intensity (a.u.).

Going from “GTGCCGACCTCCATCGCCGGATTTCCTTTTGCGTACCTCACGGAGTCACCTAGTGCAG” to “CGGGGTTTTATCATAGTTGTTGCACTGGCTTGAATTGTTTCGGAGTCACCTAGTGCAG”, the binding signal falls from 10100 fluorescence intensity (a.u.) to 8170 fluorescence intensity (a.u.).

Going from “TGCTATTGCGCAACGTCGAGCTCATCTCTATACCACACCGCGGAGTCACCTAGTGCAG” to “CTCCTTGGCCCGTTTGGTCTCTGTGTGGGTTGGTAAAGACCGGAGTCACCTAGTGCAG”, the binding signal falls from 11100 fluorescence intensity (a.u.) to 9810 fluorescence intensity (a.u.).

Going from “TTGCATAGTGGTTTATATCATCTTTATCTACCTTGTCAAACGGAGTCACCTAGTGCAG” to “AATCGAACAGGCTGAGGTATTCCACGATCGCACACTTACCCGGAGTCACCTAGTGCAG”, the binding signal falls from 10100 fluorescence intensity (a.u.) to 8780 fluorescence intensity (a.u.).

First: GAGAAAATTGTTAGTGTGCCATCTTCAAATATGGGTTTCACGGAGTCACCTAGTGCAG
Second: GAACTCACCACACACAACATGTCATTTGTTCTACATGGATCGGAGTCACCTAGTGCAG
The binding signal of the first is lower: 8190 fluorescence intensity (a.u.) for the first, 8890 fluorescence intensity (a.u.) for the second.

First: ACTGAAGAATTGTCACTGTTTTTCCAGCTGAAGTAATTTACGGAGTCACCTAGTGCAG
Second: TGGGTTTGCAAGTCTAAAAAGGGAGTGGGGTGGCATGGTGCGGAGTCACCTAGTGCAG
The binding signal of the first is higher: 9420 fluorescence intensity (a.u.) for the first, 9100 fluorescence intensity (a.u.) for the second.

Going from “GGTTTTAAAGGGGTTCCATACACGTATGATAATAAGAGACCGGAGTCACCTAGTGCAG” to “AGAGGGAATGGGACTATGGGAGTTTAATTAGGATATTTGACGGAGTCACCTAGTGCAG”, the binding signal rises from 8180 fluorescence intensity (a.u.) to 8750 fluorescence intensity (a.u.).

First: AACAAGGGAGGGAGGGGCGGCGATCTCCATCTGGCGAGCACGGAGTCACCTAGTGCAG
Second: GGTGAAAGCTAGGAACACACAACCCACACGCCTCGCTGCCCGGAGTCACCTAGTGCAG
The binding signal of the first is higher: 10900 fluorescence intensity (a.u.) for the first, 8990 fluorescence intensity (a.u.) for the second.

Compared with “ACCAAAAAACAACAACACCTGCCAATTACTCCTCGCGGTTCGGAGTCACCTAGTGCAG”, “ACTCTTCTGTTTTCCTGCGCTGTGTAATGTCAAAATTCTCCGGAGTCACCTAGTGCAG” is higher in binding signal: 8440 fluorescence intensity (a.u.) for the first, 13000 fluorescence intensity (a.u.) for the second.

First: CTGCATGGTCAGCTACTTGCAGCTGCTTCTGGTTCTTCACCGGAGTCACCTAGTGCAG
Second: TCTCCCGCTGACTGACACCTCAAAACCGGCCGTCCCACGACGGAGTCACCTAGTGCAG
The binding signal of the first is lower: 8230 fluorescence intensity (a.u.) for the first, 11300 fluorescence intensity (a.u.) for the second.

First: ACTTAAAGCACTTTTTCTCCGTCTTAATTGTGATCTTGTACGGAGTCACCTAGTGCAG
Second: CTACAACTTCCTCCGCCGCAACTGCCGCGGCCCCGACGTCCGGAGTCACCTAGTGCAG
The binding signal of the first is higher: 11200 fluorescence intensity (a.u.) for the first, 8220 fluorescence intensity (a.u.) for the second.

Compared with “CTCTCCCACTTGCACCACGGAATCTCACCCATCCACGTGTCGGAGTCACCTAGTGCAG”, “GCTGTTTCGTCGTTTCCGCGCGGTGGAGCCCACCTGCCCACGGAGTCACCTAGTGCAG” is higher in binding signal: 9080 fluorescence intensity (a.u.) for the first, 11700 fluorescence intensity (a.u.) for the second.

Going from “ATGCGAGCACCCGAACGTCTTCACATATATCGTCTGCAACCGGAGTCACCTAGTGCAG” to “TCCCAAACCCCGCGCCGCCTCTTACCGCTTCGCGTCAGCTCGGAGTCACCTAGTGCAG”, the binding signal rises from 8270 fluorescence intensity (a.u.) to 8490 fluorescence intensity (a.u.).

Going from “ATGCCAGGACACACGAAATCTCTTTACCATCCGATTACAGCGGAGTCACCTAGTGCAG” to “AGACTTTATTTTTTCCCTGGGCTAAGGACTAGTCCCATATCGGAGTCACCTAGTGCAG”, the binding signal rises from 8340 fluorescence intensity (a.u.) to 8980 fluorescence intensity (a.u.).

Going from “CACCACCACCACCTCCTCCTTCCAAAGATTCCTTCTCTTCCGGAGTCACCTAGTGCAG” to “AGTTTGGCCGCATTGGCGATCTTTCCTCTCTTGTACTACTCGGAGTCACCTAGTGCAG”, the binding signal rises from 9970 fluorescence intensity (a.u.) to 9980 fluorescence intensity (a.u.).

First: TCTGTTATGCCATCTCAAAGCTTGATTGACCTTCACCGGCCGGAGTCACCTAGTGCAG
Second: TTTGTGCTGCGCATTCGCGTCAACACTCCCATTTATTATGCGGAGTCACCTAGTGCAG
The binding signal of the first is higher: 8960 fluorescence intensity (a.u.) for the first, 8250 fluorescence intensity (a.u.) for the second.

Compared with “CCAAAATTGACTTTTATTCGTGTGCCAAATTTTTTTTTTACGGAGTCACCTAGTGCAG”, “ACCTGACGGCCCAACCAGGCGACCGCTCTCTCCGTTTTCCCGGAGTCACCTAGTGCAG” is lower in binding signal: 8520 fluorescence intensity (a.u.) for the first, 8070 fluorescence intensity (a.u.) for the second.

Going from “CTATAATTCACCAACTCACTCTTACCCCTACATTACTCATCGGAGTCACCTAGTGCAG” to “TTCTCTTGGGGTTTGGCCGGTTGGGGAGTGAGCCGTTTGGCGGAGTCACCTAGTGCAG”, the binding signal rises from 9360 fluorescence intensity (a.u.) to 11000 fluorescence intensity (a.u.).
